The other results are listed elsewhere or left out.
How the values were obtained:
Assay in all cases: log2 fold change, soluble protein after heating vs DMSO (PISA); higher = thermal stabilisation; K562 lysate, 10 uM; active = over 0.2 and 3.5 SD of the protein, either way, in both replicates (recomputed)
ibrutinib = compound: C=CC(=O)N1CCC[C@@H](n2nc(-c3ccc(Oc4ccccc4)cc3)c3c(N)ncnc32)C1 [ibrutinib]
Procedure, shortened: (§1)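 Thermal stability, expressed as log-two fold change relative to solvent controls, is given from duplicates. Crude K562 extract in PBS pH 7.4 with 1 mM MgCl2, at 1 mg/mL protein, was treated with 10 μM compound for 30 min and heated in aliquots for 3 min across 48°C-58°C. After pooling, adjustment to 0.5% NP-40 at 4°C and centrifugation at 21,000xg for 90 min, supernatant protein was measured by TMTpro 16plex LC-MS/MS with channel sums equalised.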

The chains behind the UniProt entries cited, without tags or fusion partners. Where a name states a change or a piece, a line headed by the entry shows the natural chain unless it says otherwise.
UniProt Q9NX18: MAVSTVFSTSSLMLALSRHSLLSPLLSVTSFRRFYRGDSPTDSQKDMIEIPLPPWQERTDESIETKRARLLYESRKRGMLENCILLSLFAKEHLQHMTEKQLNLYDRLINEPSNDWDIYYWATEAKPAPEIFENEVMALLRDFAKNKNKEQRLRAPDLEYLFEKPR
UniProt Q96IW7: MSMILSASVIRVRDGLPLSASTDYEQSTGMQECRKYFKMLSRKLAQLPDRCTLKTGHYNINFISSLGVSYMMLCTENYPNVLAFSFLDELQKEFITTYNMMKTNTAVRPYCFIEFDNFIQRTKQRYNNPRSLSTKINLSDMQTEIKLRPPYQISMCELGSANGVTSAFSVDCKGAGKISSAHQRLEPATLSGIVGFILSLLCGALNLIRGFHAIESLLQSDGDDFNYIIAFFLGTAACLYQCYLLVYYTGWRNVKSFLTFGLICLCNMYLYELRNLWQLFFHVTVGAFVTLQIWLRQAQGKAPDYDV
UniProt A6NKF1: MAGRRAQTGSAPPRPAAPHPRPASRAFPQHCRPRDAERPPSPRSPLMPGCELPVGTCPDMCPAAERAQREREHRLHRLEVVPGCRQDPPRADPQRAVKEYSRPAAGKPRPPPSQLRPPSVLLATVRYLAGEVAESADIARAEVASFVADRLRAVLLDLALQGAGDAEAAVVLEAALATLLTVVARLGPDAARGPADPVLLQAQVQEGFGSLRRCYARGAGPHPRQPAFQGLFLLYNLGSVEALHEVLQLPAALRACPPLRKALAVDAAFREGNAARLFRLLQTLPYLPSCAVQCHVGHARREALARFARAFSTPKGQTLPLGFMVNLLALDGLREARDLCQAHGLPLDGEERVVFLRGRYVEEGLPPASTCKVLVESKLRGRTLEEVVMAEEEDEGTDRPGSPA
UniProt O60613, whole entry, looked up: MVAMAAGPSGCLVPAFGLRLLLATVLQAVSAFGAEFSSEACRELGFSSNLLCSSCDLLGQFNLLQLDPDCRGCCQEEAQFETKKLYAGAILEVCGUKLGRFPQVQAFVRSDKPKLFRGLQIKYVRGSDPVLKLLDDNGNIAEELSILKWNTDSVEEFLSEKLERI
UniProt O14521: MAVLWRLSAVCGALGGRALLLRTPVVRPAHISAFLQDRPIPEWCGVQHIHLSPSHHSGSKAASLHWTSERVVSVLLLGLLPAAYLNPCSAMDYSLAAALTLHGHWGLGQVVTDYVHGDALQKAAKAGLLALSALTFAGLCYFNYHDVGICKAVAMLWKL
UniProt Q99470: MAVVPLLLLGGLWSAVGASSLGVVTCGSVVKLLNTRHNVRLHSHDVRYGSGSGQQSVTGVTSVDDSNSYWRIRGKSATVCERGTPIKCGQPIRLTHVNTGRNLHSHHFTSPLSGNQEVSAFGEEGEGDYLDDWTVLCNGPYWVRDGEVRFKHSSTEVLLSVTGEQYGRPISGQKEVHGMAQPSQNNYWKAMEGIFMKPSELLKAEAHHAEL
UniProt O94885: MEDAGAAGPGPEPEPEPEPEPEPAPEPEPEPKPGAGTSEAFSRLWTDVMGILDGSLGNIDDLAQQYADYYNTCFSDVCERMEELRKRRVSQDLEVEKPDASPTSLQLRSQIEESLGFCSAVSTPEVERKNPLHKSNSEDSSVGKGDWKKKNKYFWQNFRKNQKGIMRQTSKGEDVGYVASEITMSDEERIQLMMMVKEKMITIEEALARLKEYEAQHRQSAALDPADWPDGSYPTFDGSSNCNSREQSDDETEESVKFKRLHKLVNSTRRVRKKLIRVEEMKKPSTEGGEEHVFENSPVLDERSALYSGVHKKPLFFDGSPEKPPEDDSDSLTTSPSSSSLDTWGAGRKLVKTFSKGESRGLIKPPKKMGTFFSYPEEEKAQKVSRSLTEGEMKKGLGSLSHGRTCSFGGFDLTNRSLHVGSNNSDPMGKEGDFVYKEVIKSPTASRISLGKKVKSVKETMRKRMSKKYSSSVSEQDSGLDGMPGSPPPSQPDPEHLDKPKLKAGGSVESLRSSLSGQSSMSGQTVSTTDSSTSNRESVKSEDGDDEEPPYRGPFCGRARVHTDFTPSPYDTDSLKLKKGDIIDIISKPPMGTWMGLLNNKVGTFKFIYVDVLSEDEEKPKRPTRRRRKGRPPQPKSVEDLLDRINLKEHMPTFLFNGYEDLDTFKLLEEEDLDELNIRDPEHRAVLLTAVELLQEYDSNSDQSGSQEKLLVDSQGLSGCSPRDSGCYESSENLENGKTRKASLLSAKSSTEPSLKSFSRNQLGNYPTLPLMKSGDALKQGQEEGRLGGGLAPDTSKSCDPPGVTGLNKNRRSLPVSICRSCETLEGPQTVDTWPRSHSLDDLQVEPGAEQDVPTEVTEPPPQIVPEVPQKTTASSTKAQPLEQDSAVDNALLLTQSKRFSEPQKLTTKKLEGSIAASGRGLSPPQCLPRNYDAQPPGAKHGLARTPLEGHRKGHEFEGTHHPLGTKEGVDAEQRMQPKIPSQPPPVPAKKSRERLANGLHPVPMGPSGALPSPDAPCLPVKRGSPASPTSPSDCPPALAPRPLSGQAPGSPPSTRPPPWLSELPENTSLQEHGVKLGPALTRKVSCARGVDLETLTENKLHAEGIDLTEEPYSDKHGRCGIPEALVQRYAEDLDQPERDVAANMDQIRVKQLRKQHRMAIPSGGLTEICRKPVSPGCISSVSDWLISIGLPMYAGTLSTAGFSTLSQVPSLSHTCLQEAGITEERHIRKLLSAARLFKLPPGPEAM
UniProt Q9UPW6: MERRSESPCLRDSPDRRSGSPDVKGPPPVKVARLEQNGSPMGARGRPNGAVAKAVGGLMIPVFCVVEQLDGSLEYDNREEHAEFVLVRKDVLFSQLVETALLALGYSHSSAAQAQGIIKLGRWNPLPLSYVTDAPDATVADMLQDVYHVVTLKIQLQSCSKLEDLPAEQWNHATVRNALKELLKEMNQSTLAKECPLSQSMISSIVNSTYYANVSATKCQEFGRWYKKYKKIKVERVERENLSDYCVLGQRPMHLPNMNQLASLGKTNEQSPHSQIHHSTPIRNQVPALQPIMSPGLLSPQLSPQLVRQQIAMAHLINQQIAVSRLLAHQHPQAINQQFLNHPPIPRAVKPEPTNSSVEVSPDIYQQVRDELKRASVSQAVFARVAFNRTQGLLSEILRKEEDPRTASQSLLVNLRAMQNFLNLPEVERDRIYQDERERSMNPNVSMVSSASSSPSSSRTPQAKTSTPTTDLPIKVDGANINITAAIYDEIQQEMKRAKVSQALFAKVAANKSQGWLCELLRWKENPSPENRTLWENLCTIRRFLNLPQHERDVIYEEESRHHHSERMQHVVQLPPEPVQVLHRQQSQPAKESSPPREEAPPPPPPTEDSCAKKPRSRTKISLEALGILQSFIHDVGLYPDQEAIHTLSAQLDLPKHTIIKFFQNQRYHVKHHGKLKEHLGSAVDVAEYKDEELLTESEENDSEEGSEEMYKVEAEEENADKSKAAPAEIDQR
UniProt O00560: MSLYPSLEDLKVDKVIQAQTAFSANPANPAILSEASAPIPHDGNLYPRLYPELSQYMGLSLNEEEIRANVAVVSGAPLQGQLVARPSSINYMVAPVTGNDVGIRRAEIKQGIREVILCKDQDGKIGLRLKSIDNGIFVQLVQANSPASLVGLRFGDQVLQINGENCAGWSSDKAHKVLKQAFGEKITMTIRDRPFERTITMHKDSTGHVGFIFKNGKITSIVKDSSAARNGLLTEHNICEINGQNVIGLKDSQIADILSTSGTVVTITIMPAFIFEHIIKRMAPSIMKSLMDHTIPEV
UniProt Q9UPU9: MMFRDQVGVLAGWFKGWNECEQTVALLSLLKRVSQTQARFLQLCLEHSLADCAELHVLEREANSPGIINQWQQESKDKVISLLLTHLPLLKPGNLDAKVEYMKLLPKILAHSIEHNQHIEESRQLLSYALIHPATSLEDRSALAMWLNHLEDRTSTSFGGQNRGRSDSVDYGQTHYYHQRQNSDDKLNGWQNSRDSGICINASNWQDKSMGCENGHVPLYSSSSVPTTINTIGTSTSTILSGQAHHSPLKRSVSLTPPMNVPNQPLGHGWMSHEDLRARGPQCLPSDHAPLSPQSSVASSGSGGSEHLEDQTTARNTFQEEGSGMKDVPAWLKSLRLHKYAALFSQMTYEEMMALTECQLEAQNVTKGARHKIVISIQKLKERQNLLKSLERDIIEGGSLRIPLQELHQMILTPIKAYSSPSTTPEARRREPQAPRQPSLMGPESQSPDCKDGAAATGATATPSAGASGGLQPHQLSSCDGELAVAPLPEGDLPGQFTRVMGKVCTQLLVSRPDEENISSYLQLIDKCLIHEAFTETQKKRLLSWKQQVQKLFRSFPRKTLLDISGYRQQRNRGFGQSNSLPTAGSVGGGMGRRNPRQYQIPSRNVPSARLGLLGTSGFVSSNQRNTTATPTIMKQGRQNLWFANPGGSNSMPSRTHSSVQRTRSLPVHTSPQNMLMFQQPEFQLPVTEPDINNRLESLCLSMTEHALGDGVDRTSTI
UniProt Q8N9R8: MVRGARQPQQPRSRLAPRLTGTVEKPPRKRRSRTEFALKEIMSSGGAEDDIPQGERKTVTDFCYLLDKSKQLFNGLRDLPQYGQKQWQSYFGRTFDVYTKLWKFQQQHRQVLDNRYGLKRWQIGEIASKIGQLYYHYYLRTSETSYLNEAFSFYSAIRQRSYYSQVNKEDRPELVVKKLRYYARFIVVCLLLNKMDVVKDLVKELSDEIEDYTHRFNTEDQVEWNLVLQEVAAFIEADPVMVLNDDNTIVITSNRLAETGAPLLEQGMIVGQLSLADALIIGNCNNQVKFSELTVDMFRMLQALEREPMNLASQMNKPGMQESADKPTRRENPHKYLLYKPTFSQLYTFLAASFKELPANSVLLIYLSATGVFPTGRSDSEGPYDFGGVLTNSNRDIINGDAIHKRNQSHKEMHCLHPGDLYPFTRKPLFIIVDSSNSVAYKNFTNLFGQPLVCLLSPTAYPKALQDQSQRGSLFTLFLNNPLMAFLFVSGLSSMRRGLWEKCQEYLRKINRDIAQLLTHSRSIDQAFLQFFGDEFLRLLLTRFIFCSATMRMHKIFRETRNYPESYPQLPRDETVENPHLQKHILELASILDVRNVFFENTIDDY
UniProt Q9NRG7: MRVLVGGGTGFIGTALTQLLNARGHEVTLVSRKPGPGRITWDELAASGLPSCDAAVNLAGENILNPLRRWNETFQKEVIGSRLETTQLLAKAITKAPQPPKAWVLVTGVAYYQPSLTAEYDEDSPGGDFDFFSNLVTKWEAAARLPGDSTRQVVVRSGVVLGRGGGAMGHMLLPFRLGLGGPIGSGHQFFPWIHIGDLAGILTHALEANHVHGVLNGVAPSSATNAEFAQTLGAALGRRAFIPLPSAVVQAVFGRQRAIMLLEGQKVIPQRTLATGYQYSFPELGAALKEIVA
UniProt Q96HI0: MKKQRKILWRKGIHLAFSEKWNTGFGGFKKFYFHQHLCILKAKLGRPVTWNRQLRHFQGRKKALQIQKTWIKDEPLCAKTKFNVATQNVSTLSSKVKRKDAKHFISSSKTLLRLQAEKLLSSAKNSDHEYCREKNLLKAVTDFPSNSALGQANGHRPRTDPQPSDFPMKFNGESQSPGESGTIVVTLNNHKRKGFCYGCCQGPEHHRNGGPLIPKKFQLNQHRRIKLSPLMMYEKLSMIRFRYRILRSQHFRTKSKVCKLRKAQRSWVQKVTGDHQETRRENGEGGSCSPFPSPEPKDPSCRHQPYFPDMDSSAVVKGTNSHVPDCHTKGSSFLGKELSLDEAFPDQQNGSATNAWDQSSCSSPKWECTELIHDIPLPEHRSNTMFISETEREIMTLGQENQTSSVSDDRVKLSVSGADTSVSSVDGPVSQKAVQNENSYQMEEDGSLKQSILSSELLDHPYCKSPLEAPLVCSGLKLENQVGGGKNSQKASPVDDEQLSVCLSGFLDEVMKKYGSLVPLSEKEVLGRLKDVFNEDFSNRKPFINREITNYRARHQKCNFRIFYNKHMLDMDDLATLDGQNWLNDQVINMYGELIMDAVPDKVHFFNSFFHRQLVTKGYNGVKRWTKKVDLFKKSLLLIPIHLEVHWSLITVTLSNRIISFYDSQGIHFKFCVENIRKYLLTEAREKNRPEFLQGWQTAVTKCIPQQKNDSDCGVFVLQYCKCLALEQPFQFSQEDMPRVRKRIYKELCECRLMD

[1] = compound: CC(=O)c1cnc2ccc(-c3cc(Cl)c(O)c(Cl)c3)nc2c1N[C@H]1CC[C@H](CN(C)C)CC1
Procedure, shortened: as §1

ralimetinib = compound: CC(C)(C)Cn1c(N)nc2ccc(-c3[nH]c(C(C)(C)C)nc3-c3ccc(F)cc3)nc21 [ralimetinib]
Procedure, shortened: as §1

[2] = compound: CC(C)(O)CC(=O)NCCn1ccc2ncnc(Nc3ccc(Oc4cccc(C(F)(F)F)c4)c(Cl)c3)c21
Procedure, shortened: as §1

[3] = compound: CC(C)C1=C2N=C(C=C(N2N=C1)NCC3=CC=CC=C3)NCCCCCCN
Procedure, shortened: as §1

[4] = compound: CC1=C(C(CC(=O)N1)C2=CC=C(C=C2)C(F)(F)F)C(=O)NC3=C(C=C4C(=C3)C=NN4)F
Procedure, shortened: as §1

[5] = compound: CC1=C(C2=C(C=C1)C(=O)C3=CC=CC=C3N2CCCN)C
Procedure, shortened: as §1

[6] = compound: CC1=C(C=C(C=C1)NC(=O)C2=CC(=CC=C2)C(C)(C)C#N)NC3=CC4=C(C=C3)N=CN(C4=O)C
Procedure, shortened: as §1

[7] = compound: CC1=C(C=C(C=C1)NC(=O)C2=CC(=CC=C2)N(C)C)NC(=O)C3=CC=C(C=C3)O
Procedure, shortened: as §1

[8] = compound: CC1=CC=C(C=C1)SC2=C3C=C(SC3=CN=C2)C(=O)N
Procedure, shortened: as §1

vemurafenib = compound: CCCS(=O)(=O)Nc1ccc(F)c(C(=O)c2c[nH]c3ncc(-c4ccc(Cl)cc4)cc23)c1F [vemurafenib]
Procedure, shortened: as §1

[9] = compound: CCCS(=O)(=O)Nc1ccc(F)c(C(=O)c2c[nH]c3ncc(Cl)cc23)c1F
Procedure, shortened: as §1

barasertib = compound: CCN(CCCOc1ccc2c(Nc3cc(CC(=O)Nc4cccc(F)c4)[nH]n3)ncnc2c1)CCOP(=O)(O)O [barasertib]
Procedure, shortened: as §1

[10] = compound: CC[C@@H]1C(=O)N(C)c2cnc(Nc3ccc(C(=O)NC4CCN(C)CC4)cc3OC)nc2N1C1CCCC1
Procedure, shortened: as §1

volasertib = compound: CC[C@@H]1C(=O)N(C)c2cnc(Nc3ccc(C(=O)N[C@H]4CC[C@H](N5CCN(CC6CC6)CC5)CC4)cc3OC)nc2N1C(C)C [volasertib]
Procedure, shortened: as §1

[11] = compound: CCn1c(C(=O)N(C2CC2)C2CC2)cc2c3c(ncn3C)c(Nc3cc(C)n(C)n3)nc21
Procedure, shortened: as §1

saracatinib = compound: CN1CCN(CCOc2cc(OC3CCOCC3)c3c(Nc4c(Cl)ccc5c4OCO5)ncnc3c2)CC1 [saracatinib]
Procedure, shortened: as §1

sotrastaurin = compound: CN1CCN(c2nc(C3=C(c4c[nH]c5ccccc45)C(=O)NC3=O)c3ccccc3n2)CC1 [sotrastaurin]
Procedure, shortened: as §1

[12] = compound: CCn1cc(-c2ccnc3[nH]c(-c4cccc(CN(C)C)c4)cc23)c(-c2ccc(NC(=O)N(C)C)cc2)n1
Procedure, shortened: as §1

[13] = compound: CN1CCC(CNc2ccc3ncc(-c4cccc(OC(F)(F)F)c4)n3n2)CC1
Procedure, shortened: as §1

Measured: log2 fold change

SDHAF2 (UniProt Q9NX18)
inactive: ibrutinib 0.096 | [1] 0.019 | ralimetinib -0.04 | [2] -0.08 | [3] -0.02 | [4] -0.003 | [5] -0.011 | [6] 0.06 | [7] 0.015 | [8] 0.012 | vemurafenib 0.079 | [9] -0.013 | barasertib 0.265 | [10] -0.026 | volasertib 0.032 | [11] -0.017 | saracatinib 0.016 | sotrastaurin 0.033

SEC22A (UniProt Q96IW7)
inactive: ibrutinib -0.017 | [1] -0.065 | ralimetinib -0.012 | [2] -0.041 | [4] -0.185 | [6] 0.02 | [7] 0.19 | [8] 0.121 | [9] 0.022 | barasertib 0.133 | volasertib -0.048 | [11] 0.033 | sotrastaurin 0.078

SDHB, A0A087WWT1
inactive: [1] -0.011 | ralimetinib -0.011 | [2] 0.113 | [3] 0.109 | [4] -0.038 | [5] 0.067 | [6] 0.08 | [7] 0.054 | [8] 0.042 | vemurafenib -0.1 | [9] 0.001 | [10] 0 | volasertib 0.073 | [11] -0.093 | [12] -0.123 | [13] 0.067 | saracatinib -0.059 | sotrastaurin -0.342

SAC3D1 (UniProt A6NKF1)
inactive: ibrutinib 0.021 | [4] -0.031 | [6] 0.088 | barasertib 0.057 | [12] 0.131 | [13] -0.268 | sotrastaurin 0.052

SELENOF (UniProt O60613)
inactive: ibrutinib 0.009 | [1] -0.027 | ralimetinib -0.048 | [2] -0.025 | [3] -0.024 | [4] -0.033 | [5] -0.034 | [6] 0.007 | [7] -0.026 | [8] -0.009 | vemurafenib -0.058 | [9] -0.026 | barasertib 0.029 | [10] -0.055 | volasertib 0.019 | [11] -0.04 | [12] -0.092 | [13] -0.027 | saracatinib -0.007 | sotrastaurin -0.005

SDHD (UniProt O14521)
inactive: [1] -0.016 | ralimetinib 0.023 | [2] -0.006 | [3] 0.042 | [4] -0.082 | [5] -0.005 | [6] 0.039 | [7] 0.012 | [8] 0.034 | vemurafenib -0.071 | [9] 0.018 | [10] -0.074 | volasertib -0.062 | [11] 0.051 | [12] -0.151 | [13] -0.097 | saracatinib 0.058 | sotrastaurin 0.058

2 neighbouring records from above:
SAC3D1 (UniProt A6NKF1)
inactive: ibrutinib 0.021 | [4] -0.031 | [6] 0.088 | barasertib 0.057 | [12] 0.131 | [13] -0.268 | sotrastaurin 0.052

SELENOF (UniProt O60613)
inactive: ibrutinib 0.009 | [1] -0.027 | ralimetinib -0.048 | [2] -0.025 | [3] -0.024 | [4] -0.033 | [5] -0.034 | [6] 0.007 | [7] -0.026 | [8] -0.009 | vemurafenib -0.058 | [9] -0.026 | barasertib 0.029 | [10] -0.055 | volasertib 0.019 | [11] -0.04 | [12] -0.092 | [13] -0.027 | saracatinib -0.007 | sotrastaurin -0.005

More results follow.

SDF2 (UniProt Q99470)
inactive: ibrutinib 0.221 | [1] 0.064 | [4] -0.333 | [6] 0.078 | [8] 0.18 | [9] 0.067 | barasertib -0.305 | volasertib -0.057 | sotrastaurin 0.003

SASH1 (UniProt O94885)
inactive: ibrutinib 0.008 | [1] -0.014 | ralimetinib -0.024 | [2] 0 | [3] -0.004 | [4] -0.083 | [5] 0.002 | [6] 0.025 | [7] 0.019 | [8] -0.02 | [9] -0.003 | barasertib -0.151 | [10] -0.011 | volasertib 0.016 | [11] -0.075 | [12] 0.165 | [13] -0.03 | saracatinib 0.077 | sotrastaurin 0.07

SATB2 (UniProt Q9UPW6)
inactive: [1] -0.005 | ralimetinib 0.037 | [2] -0.004 | [3] -0.029 | [4] -0.007 | [5] -0.023 | [6] -0.027 | [7] 0.002 | [8] 0.047 | vemurafenib 0.002 | [9] 0 | [10] 0.023 | volasertib 0.007 | [11] 0.009 | [12] 0.074 | [13] 0.016 | saracatinib -0.026 | sotrastaurin 0.032

SDCBP isoform 2 (UniProt O00560)
inactive: ibrutinib 0.209 | ralimetinib 0.043 | [2] -0.059 | [3] -0.124 | [4] -0.077 | [5] 0.002 | [6] -0.094 | [7] -0.106 | barasertib -0.053 | [11] -0.126 | [12] 0.041 | [13] -0.191 | saracatinib -0.221 | sotrastaurin 0.03

SAMD4A (UniProt Q9UPU9)
inactive: ibrutinib -0.014 | [1] 0.052 | ralimetinib 0.395 | [2] 0.097 | [3] 0.094 | [5] -0.008 | [6] 0.025 | [7] 0.196 | [8] 0.088 | vemurafenib -0.032 | [9] -0.376 | barasertib 0.005 | [10] 0.05 | volasertib 0.014 | [11] -0.292 | [12] 1.12 | [13] 0.115 | saracatinib 0.07 | sotrastaurin 0.01

SCAI isoform 2 (UniProt Q8N9R8)
inactive: ibrutinib 0.435 | ralimetinib -0.093 | [2] 0.215 | [4] 0.072 | [7] 0.156 | vemurafenib -0.107 | barasertib 0.051 | [10] -0.074 | [11] 0.064 | [12] -0.03 | [13] -0.099

SDR39U1 (UniProt Q9NRG7)
inactive: ibrutinib 0.143 | [1] 0.233 | ralimetinib 0.018 | [2] -0.063 | [3] 0.086 | [4] 0.101 | [7] 0.048 | [8] 0.401 | [9] -0.025 | barasertib -0.089 | volasertib -0.24 | [11] -0.028 | [12] -0.058 | [13] -0.124

SENP5 (UniProt Q96HI0)
inactive: ibrutinib 0.008 | [1] 0.02 | ralimetinib -0.094 | [2] -0.006 | [3] -0.003 | [4] -0.056 | [5] 0.033 | [6] 0.026 | [7] 0.015 | [8] -0.07 | vemurafenib 0.044 | [9] 0.062 | barasertib 0.007 | [10] 0.05 | volasertib 0.053 | [11] -0.055 | saracatinib -0.088 | sotrastaurin -0.008
